# Results taken from the odorant receptor screen of Mainland et al. (2015).
# Values joined by “and” are separate entries in the source; they are usually repeats but may differ in a detail not shown here. Identical values can stand only once. This is one part of the list. Each value is one well over the wells without odorant, computed here; the data are noisy.
# What was measured:
# Assay in all cases: odorant receptor activation (CRE luciferase / Renilla) (fold of no-odor wells); higher = more activation
# Conditions in all cases: 100 µM
# OR5AN1 clone 1245 = tested on: OR5AN1 clone 1245
# OR5AP2 clone 1209 = tested on: OR5AP2 clone 1209
# OR5AR1 clone 1207 = tested on: OR5AR1 clone 1207
# OR5AS1 clone 1135 = tested on: OR5AS1 clone 1135
# [1] = tested on: OR5AU1 L66F/I248V clone 1421
# OR5AU1 clone 1344 = tested on: OR5AU1 clone 1344
# OR5B17 clone 1220 = tested on: OR5B17 clone 1220
# OR5B2 M200T clone 1246 = tested on: OR5B2 M200T clone 1246
# OR5B21 I279F clone 1482 = tested on: OR5B21 I279F clone 1482
# OR5B3 clone 1138 = tested on: OR5B3 clone 1138
Compound,odorant receptor activation (OR5AN1 clone 1245),odorant receptor activation (OR5AP2 clone 1209),odorant receptor activation (OR5AR1 clone 1207),odorant receptor activation (OR5AS1 clone 1135),odorant receptor activation [1],odorant receptor activation (OR5AU1 clone 1344),odorant receptor activation (OR5B17 clone 1220),odorant receptor activation (OR5B2 M200T clone 1246),odorant receptor activation (OR5B21 I279F clone 1482),odorant receptor activation (OR5B3 clone 1138)
CC(=O)c1ccccc1 [acetophenone],1.5,1.02,1.25,1.25,0.917,0.897,1.08,1.37,0.801 and 0.861,1.46
CC(=O)C(C)=O [diacetyl],1.1,1.17,1.44,1.3,1.38,1.01,0.889,0.995,1.43,1.11
O=CCc1ccccc1 [phenyl acetaldehyde],0.846,0.836,1.12,1.45,1.74,1.31,1.35,0.941,1.49,1.48
CCCCCCCC=CC=O [2-decenal],1.18,0.556,1.06,0.965,1.31,1.08,1.31,2.18,1.45,1.17
C=CCc1ccc(OC(C)=O)c(OC)c1 [eugenol acetate],1.57,1.7,1.5,2.41,2.07,1.23,1.31,1.64,1.74,1.85
CCCCCCOC(=O)CCC [hexyl butyrate],1.19 and 1.1,1.06,1.17,1.02,0.955,1.34 and 0.931,1.2,1.08 and 0.816,1.11 and 0.901,1.07
COC(=O)c1ccccc1 [methyl benzoate],0.41,0.867,0.803,1.42,0.864,0.577,0.703,0.779,0.699 and 1.18,1.56
CC(=O)OC1CC2CCC1(C)C2(C)C (stereo not given) [isobornyl acetate],0.963 and 0.898,0.957,1.38,1.19,0.914,1.47 and 1.2,1.04,1.09 and 0.878,0.908 and 1.24,1.2
C=C(C)C1CC=CCC1 (stereo not given) [r-limonene],0.757 and 0.433,1.06 and 0.39,1.02 and 0.584,1.19 and 0.612,1.48 and 0.907,0.681 and 0.418,0.984 and 0.509,0.728 and 0.496,1.03 and 0.561 and 0.808,1.09 and 0.647
COc1ccccc1O [guaiacol],0.658 and 1.77,1.15,1.24,0.829,0.906,0.9 and 0.902,0.549,0.833 and 1.14,0.928 and 1.12,1.17
O=C1CCCCCCCCCCCC(=O)OCCO1 [ethylene brassylate],2.6,1.91,1.87,1.61,1.67,1.4,1.44,1.48,1.43,1.75
CC12C=CCC1C1CCC3CC(=O)CCC3(C)C1CC2 (stereo not given) [androstenone],1.22,3.07,4.78,9.21,1.33,1.14,9.81,1.15,1.02,7.27
CC(C)(C)c1ccc(CCC=O)cc1 [bourgeonal],0.7,0.625,0.732,0.861,0.308,0.525,0.663,0.826,0.886,0.73
